# Assay results taken from article PMC11811033.
# By UniProt entry, the sequences of proteins in these tests, tags left out. Where a name states a change or a piece, a line headed by the entry shows the natural chain unless it says otherwise.
# UniProt P06213: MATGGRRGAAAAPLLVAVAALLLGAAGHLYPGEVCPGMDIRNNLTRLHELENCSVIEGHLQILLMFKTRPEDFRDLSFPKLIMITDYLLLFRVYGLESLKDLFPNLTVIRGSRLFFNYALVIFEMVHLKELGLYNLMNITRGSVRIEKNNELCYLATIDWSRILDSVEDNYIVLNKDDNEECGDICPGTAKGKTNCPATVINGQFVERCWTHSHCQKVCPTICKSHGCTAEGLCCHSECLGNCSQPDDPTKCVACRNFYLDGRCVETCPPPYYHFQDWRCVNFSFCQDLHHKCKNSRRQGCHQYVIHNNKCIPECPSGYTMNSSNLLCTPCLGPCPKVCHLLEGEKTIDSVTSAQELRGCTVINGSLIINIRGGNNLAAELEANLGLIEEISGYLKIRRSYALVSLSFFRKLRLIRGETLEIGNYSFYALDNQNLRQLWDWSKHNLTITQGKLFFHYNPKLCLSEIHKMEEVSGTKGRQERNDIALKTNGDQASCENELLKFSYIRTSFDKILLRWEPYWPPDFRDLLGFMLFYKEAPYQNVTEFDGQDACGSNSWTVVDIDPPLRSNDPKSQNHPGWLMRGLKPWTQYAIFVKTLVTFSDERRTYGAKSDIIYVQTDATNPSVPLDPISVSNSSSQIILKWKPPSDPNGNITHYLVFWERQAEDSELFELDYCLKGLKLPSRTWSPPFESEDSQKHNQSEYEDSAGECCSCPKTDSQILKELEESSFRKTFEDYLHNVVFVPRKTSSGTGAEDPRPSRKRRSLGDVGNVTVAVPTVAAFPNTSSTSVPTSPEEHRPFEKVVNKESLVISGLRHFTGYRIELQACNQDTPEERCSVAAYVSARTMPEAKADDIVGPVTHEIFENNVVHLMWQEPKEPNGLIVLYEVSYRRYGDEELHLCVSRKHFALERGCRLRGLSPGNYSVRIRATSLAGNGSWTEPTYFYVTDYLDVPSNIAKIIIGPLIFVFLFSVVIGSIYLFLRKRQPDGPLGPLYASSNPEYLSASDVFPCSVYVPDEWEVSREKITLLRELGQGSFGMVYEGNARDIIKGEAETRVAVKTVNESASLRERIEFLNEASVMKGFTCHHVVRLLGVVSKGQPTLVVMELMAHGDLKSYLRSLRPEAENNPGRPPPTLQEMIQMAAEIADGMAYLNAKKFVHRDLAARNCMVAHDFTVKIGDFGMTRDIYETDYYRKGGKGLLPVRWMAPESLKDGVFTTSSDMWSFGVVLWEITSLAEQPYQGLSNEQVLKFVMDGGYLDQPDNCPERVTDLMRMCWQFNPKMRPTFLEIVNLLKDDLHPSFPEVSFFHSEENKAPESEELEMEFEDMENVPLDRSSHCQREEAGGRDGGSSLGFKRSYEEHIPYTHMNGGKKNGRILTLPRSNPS
# UniProt Q13049: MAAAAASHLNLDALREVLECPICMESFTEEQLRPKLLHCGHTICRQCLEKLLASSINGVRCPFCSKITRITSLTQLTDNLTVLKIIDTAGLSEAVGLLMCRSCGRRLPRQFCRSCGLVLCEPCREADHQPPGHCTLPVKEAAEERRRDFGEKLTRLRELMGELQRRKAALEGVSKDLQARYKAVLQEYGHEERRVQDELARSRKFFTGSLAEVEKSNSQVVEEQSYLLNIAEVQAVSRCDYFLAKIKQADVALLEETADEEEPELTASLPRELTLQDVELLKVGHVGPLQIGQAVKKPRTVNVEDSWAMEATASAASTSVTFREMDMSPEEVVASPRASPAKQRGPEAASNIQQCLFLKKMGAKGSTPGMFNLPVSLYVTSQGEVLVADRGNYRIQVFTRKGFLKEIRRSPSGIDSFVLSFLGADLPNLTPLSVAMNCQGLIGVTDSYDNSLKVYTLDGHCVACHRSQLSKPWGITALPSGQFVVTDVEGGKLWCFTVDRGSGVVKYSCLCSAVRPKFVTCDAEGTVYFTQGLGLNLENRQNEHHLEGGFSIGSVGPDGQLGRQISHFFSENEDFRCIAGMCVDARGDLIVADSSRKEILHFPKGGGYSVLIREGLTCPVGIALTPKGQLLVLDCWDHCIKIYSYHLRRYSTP
# These are yes or no findings as the source states them, for the method shown. Binding seen in cells or lysates may run through a third protein. Some binding calls cover weakened binding; strength is not graded here.
# Assays:
# [1] = target: insulin receptor (INSR), endogenous in HepG2 cells (human (endogenous in HepG2)) (UniProt P06213); assay: co-IP; HepG2 transfected with pEGFP-N1_hTRIM32, 48 h; NP-40 lysis buffer (NaCl 100 mM, HEPES 30 mM, NP-40 0.5%, pH 7.4); 800 ug protein with Dynabeads and insulin receptor antibody overnight; endogenous INSR precipitated, TRIM32 found by Western blot
# [2] = target: INSR-WT (human insulin receptor from the plasmid GFP-hIR) expressed in mouse primary hepatocytes (human) (UniProt P06213); assay: co-IP; mouse primary hepatocytes transfected with INSR-WT or INSR K1085R and the TRIM32 plasmid, 48 h; immunoprecipitated with the INSR antibody, TRIM32 found by Western blot
binding [1],binding [2],Substance
binds,,"tripartite motif-containing protein 32 (TRIM32), GFP-TRIM32 expressed in HepG2 cells (from UniProt Q13049 1-653) (enzyme)"
,binds,TRIM32 (from the TRIM32 plasmid) expressed in mouse primary hepatocytes (from UniProt Q13049 1-653) (enzyme)
